{"sequences": {"note": "Protein sequences, listed by entry. Tags and fused reporters are not part of them.", "UniProt Q12791": "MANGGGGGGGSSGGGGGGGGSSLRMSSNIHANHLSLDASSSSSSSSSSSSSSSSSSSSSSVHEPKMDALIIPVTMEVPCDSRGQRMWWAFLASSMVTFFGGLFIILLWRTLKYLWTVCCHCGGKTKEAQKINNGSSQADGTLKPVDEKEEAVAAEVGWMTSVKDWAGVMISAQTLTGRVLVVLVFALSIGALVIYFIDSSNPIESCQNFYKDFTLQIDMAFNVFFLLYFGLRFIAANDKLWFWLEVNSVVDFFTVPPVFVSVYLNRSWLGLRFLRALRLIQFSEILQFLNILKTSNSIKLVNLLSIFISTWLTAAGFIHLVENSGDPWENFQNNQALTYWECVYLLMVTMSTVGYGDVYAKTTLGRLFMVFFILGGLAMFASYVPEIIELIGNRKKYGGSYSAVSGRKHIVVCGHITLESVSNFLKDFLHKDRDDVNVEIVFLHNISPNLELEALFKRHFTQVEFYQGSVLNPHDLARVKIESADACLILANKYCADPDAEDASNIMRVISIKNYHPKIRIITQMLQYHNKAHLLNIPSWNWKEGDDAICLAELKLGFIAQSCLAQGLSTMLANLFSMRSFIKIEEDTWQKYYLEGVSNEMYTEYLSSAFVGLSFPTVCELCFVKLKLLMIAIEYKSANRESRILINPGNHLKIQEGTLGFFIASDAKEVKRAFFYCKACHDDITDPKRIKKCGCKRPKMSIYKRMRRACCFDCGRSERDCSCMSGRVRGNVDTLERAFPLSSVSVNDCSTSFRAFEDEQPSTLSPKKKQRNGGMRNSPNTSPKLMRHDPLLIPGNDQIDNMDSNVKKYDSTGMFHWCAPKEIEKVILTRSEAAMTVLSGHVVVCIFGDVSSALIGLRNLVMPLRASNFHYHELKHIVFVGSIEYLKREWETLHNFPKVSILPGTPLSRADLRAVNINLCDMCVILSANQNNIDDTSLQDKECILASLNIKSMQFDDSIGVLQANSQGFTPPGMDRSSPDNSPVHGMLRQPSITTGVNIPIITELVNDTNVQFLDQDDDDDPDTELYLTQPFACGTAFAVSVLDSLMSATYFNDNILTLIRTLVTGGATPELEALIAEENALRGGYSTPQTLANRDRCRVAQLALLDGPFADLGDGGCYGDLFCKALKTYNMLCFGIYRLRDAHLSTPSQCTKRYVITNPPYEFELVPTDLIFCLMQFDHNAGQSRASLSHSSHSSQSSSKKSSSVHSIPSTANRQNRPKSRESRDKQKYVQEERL"}, "source": "paper PMC9444072", "binders": {"B1": {"name": "BK channel β1 subunit (hSloβ1, human slow poke regulatory beta one subunit) (protein, UniProt Q16558 1-191)", "chain": "MVKKLVMAQKRGETRALCLGVTMVVCAVITYYILVTTVLPLYQKSVWTQESKCHLIETNIRDQEELKGKKVPQYPCLWVNVSAAGRWAVLYHTEDTRDQNQQCSYIPGSVDNYQTARADVEKVRAKFQEQQVFYCFSAPRGNETSVLFQRLYGPQALLFSLFWPTFLLTGGLLIIAMVKSNQYLSILAAQK"}}, "biological_target": "BK channel α subunit (hSloα1, human slow poke alpha subunit K+ channel) (human) (UniProt Q12791)", "assay": "native gel or EMSA; native SMA-PAGE (4-16% Tris/glycine gradient gel, 150 V, 1 h, room temperature) of Ni-NTA purified SMALPs from HEK293 membranes, followed by western blot with anti-hsloα, anti-hsloβ or anti-his antibodies; subunits co-expressed in cells and extracted together", "note": "No constants are given. Whether binding was seen depends on the method and setting. Some entries that bind do so weakly or less than the wild type."}
{"binder": "B1", "values": [{"measurement": "binding", "result": "binds"}]}
